PubChem BioAssay AID504774 – Drosophila RNAi Screening Center, 2011
Aim: 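Genes required for cells to withstand methyl methanesulphonate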 (primary screen). Cells: Drosophila Kc167 cells. Knock-down reagent: long dsRNA against Drosophila genes, about 0.25 µg dsRNA per well. Time to read-out: about 6 days: 3 days knock-down, then 3 days with or without MMS. Treatment: methyl methanesulphonate 0.004% (w/v) for 3 days after knock-down. Measured: 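ATP-dependent luminescence as a measure of live cells in MMS-exposed wells, quantile normalised within each plate, with replicate values also given as a mean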. Scale: mean viability with MMS and viability with MMS: higher = more surviving cells after MMS.
The deposit covers about 23,000 reagents; this is a random part of those that have a named target and a result. 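Values are quantile-normalised luminescence on an arbitrary scale; higher means more cells surviving MMS.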 Names joined by + are all predicted targets of the reagent.

| gene | DRSC id | mean viability with MMS | viability with MMS, replicate 1 | viability with MMS, replicate 2 |
| --- | --- | --- | --- | --- |
| up | DRSC20382 | 3.51e6 | 4.05e6 | 3.80e6 |
| CG31643 | DRSC00906 | 3.55e6 | 4.09e6 | 3.97e6 |
| SdhB | DRSC05018 | 3.70e6 | 4.16e6 | 4.06e6 |
| SdhB | DRSC21367 | 3.91e6 | 4.25e6 | 4.53e6 |
| bif | DRSC18901 | 3.45e6 | 3.92e6 | 3.92e6 |
| bif | DRSC20313 | 3.65e6 | 4.21e6 | 4.07e6 |
| Muc18B | DRSC20064 | 3.57e6 | 3.99e6 | 4.10e6 |
| Muc18B | DRSC21644 | 3.65e6 | 4.05e6 | 4.21e6 |
| ft | DRSC00819 | 3.46e6 | 3.92e6 | 3.84e6 |
| CG2209 | DRSC19843 | 3.53e6 | 3.99e6 | 4.00e6 |
| lili | DRSC14143 | 3.47e6 | 3.92e6 | 3.95e6 |
| CG1812 | DRSC20557 | 3.58e6 | 4.12e6 | 4.03e6 |
| grass | DRSC15911 | 3.69e6 | 4.15e6 | 4.20e6 |
| CG10877 | DRSC14274 | 3.66e6 | 4.20e6 | 4.10e6 |
| Gr92a | DRSC21631 | 3.47e6 | 3.93e6 | 3.98e6 |
| QC | DRSC09736 | 3.82e6 | 4.21e6 | 4.46e6 |
| dnt | DRSC03522 | 3.61e6 | 3.71e6 | 4.52e6 |
| Qsox1 | DRSC06878 | 3.73e6 | 4.00e6 | 3.98e6 |
| CG6337 | DRSC06977 | 3.82e6 | 4.39e6 | 4.49e6 |
| CG6337 | DRSC21870 | 3.38e6 | 3.94e6 | 3.83e6 |
| CG14086 | DRSC10090 | 3.62e6 | 4.16e6 | 4.05e6 |
| cbc | DRSC06957 | 3.35e6 | 3.80e6 | 3.76e6 |
| Pss | DRSC11757 | 3.43e6 | 3.79e6 | 3.95e6 |
| Ugt37D1 | DRSC02645 | 3.51e6 | 3.98e6 | 3.99e6 |
| Oct-TyrR | DRSC11883 | 3.46e6 | 3.92e6 | 3.90e6 |
| kat-60L1 | DRSC12184 | 3.87e6 | 4.42e6 | 4.34e6 |
| CG9449 | DRSC11073 | 3.51e6 | 3.94e6 | 4.01e6 |
| CG15919 | DRSC06594 | 1.87e6 | 4.04e6 | – |
| CG13039 | DRSC09920 | 3.42e6 | 3.89e6 | 3.81e6 |
| psh | DRSC19990 | 3.45e6 | 3.90e6 | 3.91e6 |
| Ahcy | DRSC19329 | 3.46e6 | 3.83e6 | 4.10e6 |
| CG34204 | DRSC03897 | 3.47e6 | 3.91e6 | 3.98e6 |
| igl | DRSC07631 | 3.57e6 | 4.14e6 | 3.97e6 |
| sa | DRSC11649 | 3.59e6 | 4.17e6 | 3.89e6 |
| CG4953 | DRSC02792 | 3.66e6 | 4.38e6 | 3.98e6 |
| Acp26Aa | DRSC01855 | 3.55e6 | 4.08e6 | 3.95e6 |
| ND-ACP | DRSC08724 | 3.53e6 | 3.93e6 | 4.08e6 |
| MED15 | DRSC00267 | 2.72e6 | 3.11e6 | 2.97e6 |
| GstD7 | DRSC16688 | 3.53e6 | 4.08e6 | 4.02e6 |
| CG31462 (retired record) | DRSC14359 | 3.58e6 | 4.01e6 | 4.13e6 |
| CG32198 | DRSC09553 | 3.29e6 | 3.70e6 | 3.89e6 |
| Dip-B | DRSC16466 | 3.64e6 | 4.17e6 | 4.13e6 |

Entries above whose target name begins with A or a:
| gene | DRSC id | mean viability with MMS | viability with MMS, replicate 1 | viability with MMS, replicate 2 |
| --- | --- | --- | --- | --- |
| Ahcy | DRSC19329 | 3.46e6 | 3.83e6 | 4.10e6 |
| Acp26Aa | DRSC01855 | 3.55e6 | 4.08e6 | 3.95e6 |

Additional entries:
| gene | DRSC id | mean viability with MMS | viability with MMS, replicate 1 | viability with MMS, replicate 2 |
| --- | --- | --- | --- | --- |
| CG10654 | DRSC09767 | 3.52e6 | 4.11e6 | 3.87e6 |
| CG32181 | DRSC22635 | 3.66e6 | 4.11e6 | 4.11e6 |
| CG11839 | DRSC14398 | 3.63e6 | 4.01e6 | 4.22e6 |
| CG1607 | DRSC15130 | 3.53e6 | 3.89e6 | 4.12e6 |
| CG3701 (retired record) | DRSC04408 | 3.47e6 | 3.82e6 | 4.04e6 |
| CG3701 (retired record) | DRSC04409 | 3.33e6 | 3.58e6 | 3.86e6 |
| CG2898 | DRSC18238 | 3.41e6 | 3.87e6 | 3.88e6 |
| CG8252 | DRSC07126 | 3.64e6 | 4.10e6 | 4.18e6 |
| CG15414 | DRSC00429 | 3.65e6 | 4.08e6 | 4.14e6 |
| CG15414 | DRSC22353 | 3.58e6 | 3.98e6 | 4.10e6 |
| CG13177 | DRSC06303 | 3.44e6 | 3.97e6 | 3.65e6 |
| CG14989 | DRSC08448 | 3.49e6 | 4.02e6 | 3.88e6 |
| GluRS-m | DRSC10431 | 3.73e6 | 4.26e6 | 4.12e6 |
| CG5662 | DRSC19957 | 1.84e6 | 4.08e6 | 3.94e6 |
| Cap-D3 + tomb | DRSC02347 | 3.57e6 | 4.09e6 | 4.00e6 |
| sw | DRSC20388 | 3.43e6 | 3.88e6 | 3.93e6 |
| Mlf | DRSC07472 | 3.26e6 | 3.69e6 | 3.65e6 |
| l(1)G0196 | DRSC20591 | 2.45e6 | 4.08e6 | 3.93e6 |
| l(1)G0196 | DRSC20628 | 3.65e6 | 4.16e6 | 4.15e6 |
| l(1)G0196 | DRSC20629 | 3.56e6 | 3.95e6 | 4.12e6 |
| bark | DRSC00635 | 3.57e6 | 4.06e6 | 4.02e6 |
| eIF1 | DRSC08520 | 3.45e6 | 3.93e6 | 3.92e6 |
| Vps50 | DRSC06910 | 3.67e6 | 4.18e6 | 4.14e6 |
| Tango8 | DRSC06474 | 3.19e6 | 3.86e6 | 3.74e6 |
| Ir94g | DRSC15231 | 3.62e6 | 4.15e6 | 4.05e6 |
| Cyp9b1 | DRSC07389 | 3.55e6 | 4.04e6 | 4.00e6 |
